These results are taken from paper PMC12483987.

The exact form of at least one protein or probe is not confirmed.

Among the test systems are GST-CiSPL7; GST-CiSPL6; GST-CiSPL3.
Common to all, as to test: EMSA
Common to all, as to conditions: EMSA/Gel-Shift kit (Beyotime) per manufacturer; unlabelled competitor 2.5- to 10-fold; pH and temperature not stated; recombinant protein; protein details: N-terminal GST (pGEX-6P-1); label: 3' biotin (F strand)
Background: A gel shift assay detects complexes by their altered migration in electrophoresis.

Turning to “GCCAAAACCATAACTACTTAGTACACAAAAAACTTTTCTGTTCG (double strand) [pCiFD probe]”, the binding result with GST-CiSPL7 is recorded as “binds”.

As to “ACTCAAAAAACAAAACTATTGTACTGCCCTGTGCATGTGTGCAT (double strand) [pCiGA20ox2 probe]”, the binding result in the series on GST-CiSPL6 is “binds”.

As to “AAATGAATAATTCAGAAACTGTACGTGATGATAGAATCAATGAG (double strand) [pCiKN6 probe]”, the binding result with GST-CiSPL3 is reported as “binds”.
